Here are results for twelve molecules from patent publication US20060019342A1 (AstraZeneca / MedImmune, published 2006).

Amino acid sequences for entries named in this document (tags omitted). Residues count along the entry.
UniProt P29317, residues 25-534: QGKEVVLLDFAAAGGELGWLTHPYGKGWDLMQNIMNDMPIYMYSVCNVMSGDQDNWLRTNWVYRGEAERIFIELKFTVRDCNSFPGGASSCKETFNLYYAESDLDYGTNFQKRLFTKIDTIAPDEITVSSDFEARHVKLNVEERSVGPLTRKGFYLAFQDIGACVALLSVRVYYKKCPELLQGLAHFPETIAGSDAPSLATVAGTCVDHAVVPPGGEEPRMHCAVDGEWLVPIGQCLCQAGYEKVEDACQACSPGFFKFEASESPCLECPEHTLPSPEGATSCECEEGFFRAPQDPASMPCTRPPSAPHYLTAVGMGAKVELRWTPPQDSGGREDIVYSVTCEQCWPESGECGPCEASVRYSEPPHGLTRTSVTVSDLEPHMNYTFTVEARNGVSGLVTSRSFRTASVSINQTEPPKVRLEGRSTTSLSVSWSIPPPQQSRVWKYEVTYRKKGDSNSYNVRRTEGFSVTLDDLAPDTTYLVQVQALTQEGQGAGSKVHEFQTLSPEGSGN

No constants are given. Whether binding was seen depends on the method and setting. Some results given as binding are weak or reduced against the parent protein; the word gives no strength.

To fix the notation:
B1: 10D3/M (antibody, V domains shown)
VH: QMQLVQSGPEVKKPGTSVKVSCKASGFTFDDYSMTWVRQARGQRLEWIGFIRNKANAYTTEYADSVKGRVTITRDMSTSTAYMELSSLRSEDTAVYYCARYPRYHAMDSWGQGTSVTVSS
VL: DIQMTQSPSSLSASVGDRVTITCRASQSISNNLHWYQQKPGKAPKLLIKYAFQSISGVPSRFSGSGSGTDFTFTISSLQPEDFATYYCQQANSWPLTFGGGTKVEIK
B2: 1E11 humanized anti-EphA2 monoclonal antibody (antibody, human IgG1, V domains shown)
VH: QMQLVQSGPEVKKPGTSVKVSCKASGFTFDDYSMTWVRQARGQRLEWIGFIRNKANDYTTEYSASVKGRVTITRDMSTSTAYMELSSLRSEDTAVYYCARYPRYHAMDSWGQGTSVTVSS
VL: DIQMTQSPSSLSASVGDRVTITCRASQSISNNLHWYQQKPGKAPKLLIKYTFQSISGVPSRFSGSGSGTDFTFTISSLQPEDFATYYCQQANSWPLTFGGGTKVEIKE
B3: 1E11/M (antibody, V domains shown)
VH: QMQLVQSGPEVKKPGTSVKVSCKASGFTFDDYSMTWVRQARGQRLEWIGFIRNKANDYTTEYADSVKGRVTITRDMSTSTAYMELSSLRSEDTAVYYCARYPRYHAMDSWGQGTSVTVSS
VL: DIQMTQSPSSLSASVGDRVTITCRASQSISNNLHWYQQKPGKAPKLLIKYTFQSISGVPSRFSGSGSGTDFTFTISSLQPEDFATYYCQQANSWPLTFGGGTKVEIK
B4: 10D3 humanized anti-EphA2 monoclonal antibody (antibody, human IgG1, V domains shown)
VH: QMQLVQSGPEVKKPGTSVKVSCKASGFTFDDYSMTWVRQARGQRLEWIGFIRNKANAYTTEYSASVKGRVTITRDMSTSTAYMELSSLRSEDTAVYYCARYPRYHAMDSWGQGTSVTVSS
VL: DIQMTQSPSSLSASVGDRVTITCRASQSISNNLHWYQQKPGKAPKLLIKYAFQSISGVPSRFSGSGSGTDFTFTISSLQPEDFATYYCQQANSWPLTFGGGTKVEIK
B5: 4B11 humanized anti-EphA2 monoclonal antibody (antibody, human IgG1, V domains shown)
VH: QMQLVQSGPEVKKPGTSVKVSCKASGFTFTDYSMNWVRQARGQRLEWIGFIRNKANSYTTEYSASVKGRVTITRDMSTSTAYMELSSLRSEDTAVYYCARYPRHHAMDSWGQGTSVTVSS
VL: DIQMTQSPSSLSASVGDRVTITCRASQSISNNLHWYQQKPGKAPKLLIKYAFQSISGVPSRFSGSGSGTDFTFTISSLQPEDFATYYCQQSNSWPLTFGGGTKVEIK
B6: 4B11/M (antibody, V domains shown)
VH: QMQLVQSGPEVKKPGTSVKVSCKASGFTFTDYSMNWVRQARGQRLEWIGFIRNKANSYTTEYADSVKGRVTITRDMSTSTAYMELSSLRSEDTAVYYCARYPRHHAMDSWGQGTSVTVSS
VL: DIQMTQSPSSLSASVGDRVTITCRASQSISNNLHWYQQKPGKAPKLLIKYAFQSISGVPSRFSGSGSGTDFTFTISSLQPEDFATYYCQQSNSWPLTFGGGTKVEIK
B7: G5 humanized anti-EphA2 monoclonal antibody (antibody, human IgG1, V domains shown)
VH: QMQLVQSGPEVKKPGTSVKVSCKASGFTFTDYSMNWVRQARGQRLEWIGFIRNKANDYTTEYSASVKGRVTITRDMSTSTAYMELSSLRSEDTAVYYCARYPRYHAMDSWGQGTSVTVSS
VL: DIQMTQSPSSLSASVGDRVTITCRASQSISNNLHWYQQKPGKAPKLLIKYVFQSISGVPSRFSGSGSGTDFTFTISSLQPEDFATYYCQQSNSWPLTFGGGTKVEIK
B8: G5/M (antibody, V domains shown)
VH: QMQLVQSGPEVKKPGTSVKVSCKASGFTFTDYSMNWVRQARGQRLEWIGFIRNKANDYTTEYADSVKGRVTITRDMSTSTAYMELSSLRSEDTAVYYCARYPRYHAMDSWGQGTSVTVSS
VL: DIQMTQSPSSLSASVGDRVTITCRASQSISNNLHWYQQKPGKAPKLLIKYVFQSISGVPSRFSGSGSGTDFTFTISSLQPEDFATYYCQQSNSWPLTFGGGTKVEIK
B9: 12G3/M, heavy chain modified 12G3 (S60A/A61D, Kabat) (antibody, human IgG1, V domains shown)
VH: QMQLVQSGPEVKKPGTSVKVSCKASGFTFDDYSMNWVRQARGQRLEWIGFIRNKANDYTTEYADSVKGRVTITRDMSTSTAYMELSSLRSEDTAVYYCARYPRHHAMDSWGQGTSVTVSS
VL: DIQMTQSPSSLSASVGDRVTITCRASQSISNNLHWYQQKPGKAPKLLIKYAFQSISGVPSRFSGSGSGTDFTFTISSLQPEDFATYYCQQANSWPLTFGGGTKVEIK
notes: The light chain is unaltered; Human IgG1 / kappa; also called 12G3/Mut
B10: 12G3 humanized anti-EphA2 monoclonal antibody (antibody, human IgG1, V domains shown)
VH: QMQLVQSGPEVKKPGTSVKVSCKASGFTFDDYSMNWVRQARGQRLEWIGFIRNKANDYTTEYSASVKGRVTITRDMSTSTAYMELSSLRSEDTAVYYCARYPRHHAMDSWGQGTSVTVSS
VL: DIQMTQSPSSLSASVGDRVTITCRASQSISNNLHWYQQKPGKAPKLLIKYAFQSISGVPSRFSGSGSGTDFTFTISSLQPEDFATYYCQQANSWPLTFGGGTKVEIK
notes: Expressed as soluble human IgG1 (human gamma 1, human kappa)
B11: 4C10/M, heavy chain modified 4C10 (S60A/A61D, Kabat) (antibody, human IgG1, V domains shown)
VH: QMQLVQSGPEVKKPGTSVKVSCKASGFTFDDYSMTWVRQARGQRLEWIGFIRNKANAYTTEYADSVKGRVTITRDMSTSTAYMELSSLRSEDTAVYYCARYPRHHAMDSWGQGTSVTVSS
VL: DIQMTQSPSSLSASVGDRVTITCRASQSISNNLHWYQQKPGKAPKLLIKYAFQSISGVPSRFSGSGSGTDFTFTISSLQPEDFATYYCQQSNSWPLTFGGGTKVEIK
notes: The light chain is unaltered; Human IgG1 / kappa; also called 4C10/Mut
B12: 4C10 humanized anti-EphA2 monoclonal antibody (antibody, human IgG1, V domains shown)
VH: QMQLVQSGPEVKKPGTSVKVSCKASGFTFDDYSMTWVRQARGQRLEWIGFIRNKANAYTTEYSASVKGRVTITRDMSTSTAYMELSSLRSEDTAVYYCARYPRHHAMDSWGQGTSVTVSS
VL: DIQMTQSPSSLSASVGDRVTITCRASQSISNNLHWYQQKPGKAPKLLIKYAFQSISGVPSRFSGSGSGTDFTFTISSLQPEDFATYYCQQSNSWPLTFGGGTKVEIK
notes: Expressed in HEK 293 cells as soluble human IgG1 (human gamma 1 heavy chain, human kappa light chain)

The experiment addresses T1, EphA2-Fc (UniProt P29317 25-534, limits assumed).
T1 construct: Amine-coupled to a CM5 chip; not shown: Fc part
The experiment is described as follows: SPR (BIAcore), 250 µl transfection supernatant (2nd transfection, 2nd harvest) over EphA2-Fc amine-coupled to a CM5 chip at 4539 RU, 25 °C, 75 µL/min.
Regarding B1, the binding result was “binds”. On to B2, for which the binding entry is given as “binds”. With B3, the binding entry is “binds”. For B4 the value was “binds”; for B5, “binds”. B6: the binding result is recorded as “binds”. For B7 the value was “binds”; for B8, “binds”; for B9, “binds”. Next, B10: “binds”.

As for B11, the binding result is listed as “binds”. For B12 the value was “binds”.
